# PubChem BioAssay AID1224828, NIAID – 2016
# Aim: 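Knock-downs that increase or decrease LPS-induced p65 nuclear translocation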 (primary screen)
# Cells: mouse RAW264.7 G9 macrophage reporter cells (GFP-p65, Tnf promoter-mCherry)
# Reagent: siRNA pool against mouse genes, 100 nM
# Timing: 2 days siRNA transfection, then 40 min LPS before fixation
# Conditions: LPS (Salmonella minnesota R595) at 10 ng/ml
# Measured: 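Imaged p65 nuclear translocation ratio, normalised to the plate median, converted to robust z-scores and averaged across two replicates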
# Scale: p65 translocation robust z-score: higher = more nuclear NF-kappaB p65 after LPS than the plate median; nuclear/cytoplasmic p65 ratio: higher = more nuclear NF-kappaB p65
# Rule for the call: 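Active if robust z is above 3.3 (negative regulators) or below -1.56, the Tlr4 control median (positive regulators); activity score 50 or more; control wells not called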
# Meaning of the calls: active = hit (p65 shift raised or lowered); inactive = no clear change
# This is a random part of about 17,000 deposited reagents. 762 of them (4.5%) count as active. 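Active calls include both raised and lowered p65 entry, mostly lowered; wells with fewer than 50 cells lack a z-score.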 Raw values are not corrected between plates.
gene,p65 translocation robust z-score,"nuclear/cytoplasmic p65 ratio, rep 1","nuclear/cytoplasmic p65 ratio, rep 2",low cell count flag,Call
Cers4,-1.66,1.24,1.28,enough cells to score,active
Rhbdl1,,1.37,1.13,fewer than 50 cells per well; well left out of scoring,inactive
Ddx54,-0.36,1.45,1.56,enough cells to score,inactive
Chek1,0.28,1.67,1.47,enough cells to score,inactive
Faxc,1.49,1.48,1.74,enough cells to score,inactive
Il1rl2,-0.15,1.5,1.32,enough cells to score,inactive
Or6b6,1.98,1.71,1.29,enough cells to score,inactive
Traf7,1.1,1.6,1.31,enough cells to score,inactive
Cyfip2,0.09,1.51,1.37,enough cells to score,inactive
Luzp2,-1.17,1.61,1.31,enough cells to score,inactive
Sult1c2,0.05,1.46,1.21,enough cells to score,inactive
Rpl38,-0.71,1.35,1.12,enough cells to score,inactive
4930474M22Rik,-0.76,1.22,1.21,enough cells to score,inactive
Mmp16,-1.29,1.27,1.19,enough cells to score,inactive
Ampd2,0.31,1.57,1.81,enough cells to score,inactive
Ripor2,-0.39,1.38,1.34,enough cells to score,inactive
Adora2b,1.36,1.69,1.79,enough cells to score,inactive
Kdm8,,1.35,1.19,fewer than 50 cells per well; well left out of scoring,inactive
Or6c69c,,1.64,1.45,fewer than 50 cells per well; well left out of scoring,inactive
Syt8,,1.01,0.968,fewer than 50 cells per well; well left out of scoring,inactive
Prl3b1,0.4,1.57,1.92,enough cells to score,inactive
Gpr151,-1.25,1.33,1.4,enough cells to score,inactive
Ryr2,-0.33,1.47,1.48,enough cells to score,inactive
Ctrb1,0.24,1.69,1.74,enough cells to score,inactive

5 successive reagents from above:
gene,p65 translocation robust z-score,"nuclear/cytoplasmic p65 ratio, rep 1","nuclear/cytoplasmic p65 ratio, rep 2",low cell count flag,Call
Faxc,1.49,1.48,1.74,enough cells to score,inactive
Il1rl2,-0.15,1.5,1.32,enough cells to score,inactive
Or6b6,1.98,1.71,1.29,enough cells to score,inactive
Traf7,1.1,1.6,1.31,enough cells to score,inactive
Cyfip2,0.09,1.51,1.37,enough cells to score,inactive

Next entries:
gene,p65 translocation robust z-score,"nuclear/cytoplasmic p65 ratio, rep 1","nuclear/cytoplasmic p65 ratio, rep 2",low cell count flag,Call
Il7r,-1.24,1.31,1.22,enough cells to score,inactive
Ms4a1,-0.19,1.39,1.35,enough cells to score,inactive
Cntn4,0.6,1.65,1.92,enough cells to score,inactive
Arfgap1,1.73,1.81,1.95,enough cells to score,inactive
Irx4,-0.72,1.35,1.31,enough cells to score,inactive
Clptm1,0.86,1.74,1.91,enough cells to score,inactive
Dmrta2,-0.18,1.43,1.35,enough cells to score,inactive
Sertm1,1.16,1.57,1.56,enough cells to score,inactive
Dpp10,2.29,1.67,1.93,enough cells to score,inactive
Trim56,-1.05,1.38,1.24,enough cells to score,inactive
Zfp423,-0.17,1.4,1.56,enough cells to score,inactive
Nfx1,1.42,1.7,1.55,enough cells to score,inactive
Gsdmc2,-0.56,1.35,1.62,enough cells to score,inactive
Map3k7cl,0.21,1.48,1.25,enough cells to score,inactive
Spata20,,1.6,1.14,fewer than 50 cells per well; well left out of scoring,inactive
Nacc1,-0.07,1.61,1.59,enough cells to score,inactive
